About 20 (1%) of roughly 1,600 compounds showed an effect of 50% or more. The list shows a part of the results.

The subject of this test is T1, E. coli pLC1021 (luc-trpAt trans-translation reporter).
T1 construct: pLC1021 luc-trpAt reporter strain
The arrangement: species or system Escherichia coli pLC1021; luc-trpAt non-stop luciferase reporter; luminescence rises when trans-translation is inhibited; normalized to KKL-35 and DMSO. The following applies: reporter signal, KKL-35 = 100%; rise means trans-translation inhibition; 2 h, 20 µM. In a few lines: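 Luminescence (560 nm, 10 min after Bright-Glo) reports luciferase that escapes trans-translation tagging, measured after 2 h room-temperature treatment with 20 µM compound. Each plate was scaled between DMSO (negative) and 20 µM KKL-35 (positive) controls. Compounds scoring one standard deviation above the median counted as positive; at least two biological repeats.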
Regarding `COc1ccc(C)cc1CN1CCC(c2cc3ncccc3cn2)CC1` [KKL-0470], the “% activation” value came out at 0%.
As for `O=C(c1ccc(Cl)cc1)c1ccc(CSc2nnc(-c3ccccc3)o2)o1` [KKL-1212], the figure is 0%; as for `Cc1nc(C2CCNCC2)ncc1-c1nc(N2CCCCCC2)ncc1-c1ccc(F)cc1` [KKL-0335], 0%.
As for `CCN(CC)c1ccc(NC(S)=NCc2ccc(Cl)cc2)cc1` [KKL-1543], the figure is 2%.
For `O=C(/C=C/c1ccc(Cl)c([N+](=O)[O-])c1)c1cccnc1` [KKL-0942] the value was 0%.
Consider `Cc1ccc2nc(O)c(CNc3ccc(-c4nc5cc(C)ccc5[nH]4)cc3)cc2c1` [KKL-0532], for which the “% activation” value stood at 0%.
For the molecule `CCc1ccc(CN2CCC3(CC2)OCCc2sccc23)s1` [KKL-1775], the “% activation” value came out at 2%.
For the molecule `COc1ccc(OC)c(NC(=O)Nc2ccc(Cl)c(C(F)(F)F)c2)c1` [KKL-1544], the “% activation” value amounted to 0%.
For `OC(CN1CCC(O)(c2ccc(F)cc2)CC1)c1ccc(-c2ccccc2)cc1` (stereo not shown) [KKL-0933] the value was 0%.
For `COC(=O)CSc1ccc2c(N)c(C(=O)OC)sc2c1` [KKL-1512] the value was 0%; for `Cc1ccc2nc(/N=C(\N)NC(=O)NC3CCCCC3)nc(C)c2c1` [KKL-1002], 0%; for `COc1ccc(Cc2nn3c(-c4ccccc4)nnc3s2)cc1` [KKL-0734], 15%.
As for `CCOc1cc(CNCc2ccccc2OCc2ccccc2)cc(Cl)c1OCC` [KKL-1066], the figure is 14%.
As for `CCC(C)NC(=O)c1c(N)n(N=Cc2ccccn2)c2nc3ccccc3nc12` (stereo not shown) [KKL-0890], the “% activation” value came out at 0%.
As for `COc1ccc(-c2nc(CN3CCC4(C=Cc5ccccc54)CC3)c(C)o2)c(F)c1` [KKL-0646], the figure is 2%.
With `c1csc(-c2nnc(Sc3ccnc(N4CCN(c5ccncc5)CC4)n3)n2CCCN2CCOCC2)c1` [KKL-1798], the “% activation” value came out at 0%.
For `COC(=O)COc1ccc(/C=C(/C#N)c2nc3ccccc3[nH]2)cc1` [KKL-1277] the value was 0%; for `O=C1Nc2ccccc2C1=NN=CC1=C(N2CCOCC2)/C(=C/c2ccccc2)CC1` [KKL-0851], 0%.
With `COc1ccc(C(CCNCc2ccc(F)cc2)c2ccc(F)cc2)cc1` (stereo not shown) [KKL-0880], the “% activation” value was determined as 0%.
As for `COc1cccc(-c2nc3c(N4CCCC4)cccc3n2CC2CCCN2)n1` (stereo not shown) [KKL-1755], the figure is 0%.
As for `COc1cc(Br)cc2cc(C(=O)Nc3cccc(C(F)(F)F)c3)c(=O)oc12` [KKL-1294], the figure is 0%; as for `Cc1ccc2nc(C(F)(F)F)c(C(=O)NCc3ccco3)n2c1` [KKL-1792], 0%.
In the case of `N#C/C(=C/c1ccc([N+](=O)[O-])o1)c1ccc(C#N)cc1` [KKL-0597], the “% activation” value is on record as 19%.
As for `Cc1ccc([N+](=O)[O-])cc1NC(=O)CN(C(=O)c1ccccc1Cl)C1CCCCC1` [KKL-1640], the figure is 0%; as for `Cc1c(CN(CCCn2ccnc2)Cc2ccc(F)cc2)[nH]c2ccc(F)cc12` [KKL-0545], 2%.
As for `CCOC(=O)COc1ccc2c(C)c(CC(=O)OC)c(=O)oc2c1` [KKL-1441], the figure is 1%; as for `COC(=O)c1c(NC(=O)c2c(F)c(F)c(F)c(F)c2F)sc2c1CCCCC2` [KKL-1475], 8%; as for `CN(C)CCN(Cc1ccc2c(c1)OCO2)C(=O)c1cc2cc(Cl)ccc2n1C` [KKL-0701], 0%.
For `CSc1ncc(C(=O)N2CCC(C3CCCCC3)C2)cn1` (stereo not shown) [KKL-0672] the value was 0%; for `CC(=O)Nc1nc2ccccc2n1CCOc1ccccc1` [KKL-0781], 1%.
Take `COc1ccc(-c2c(C)nn3c(O)c(Cc4ccccc4)c(C)nc23)cc1` [KKL-1526]: the “% activation” value is given as 4%.
As for `CCN(CC)c1ccc(/C=C(/C#N)c2nc3ccccc3[nH]2)c(OC(C)C)c1` [KKL-1057], the figure is 0%; as for `Cc1ccc(NC(=O)c2ccc(N3CCN(C)CC3)c([N+](=O)[O-])c2)cc1Cl` [KKL-0904], 2%.
For `Cc1cc2ncn(N=Cc3ccc([N+](=O)[O-])s3)c2cc1C` [KKL-0376] the value was 32%; for `COc1cc(CNC(C)c2ccccc2)cc(Cl)c1OCC(=O)Nc1ccccc1` (stereo not shown) [KKL-1052], 0%.
As for `Cn1cc(CCNC(=O)Nc2ccc(N3CCCCC3)nc2)cn1` [KKL-1828], the figure is 0%; as for `c1ccc(CCNc2ccnc3cc4ccccc4cc23)cc1` [KKL-1051], 0%; as for `CCOC(=O)c1cnc(-n2nc(C)cc2C)nc1NC(C)c1ccccc1` (stereo not shown) [KKL-0990], 5%.
Regarding `CCOCn1ccc(NS(=O)(=O)c2ccc(N)cc2)nc1=O` [KKL-1854], the “% activation” value turned out to be 0%.
For `CN(C)S(=O)(=O)c1ccc(C(=O)Nc2nnc(-c3ccc(Cl)s3)o2)cc1` [KKL-1747] the value was 1%; for `c1ccc(-c2nc(NCCCn3ccnc3)c3ccccc3n2)cc1` [KKL-0792], 0%.
Consider `COc1cccc(-n2nnnc2S(=O)(=O)Cc2ccccc2)c1` [KKL-1193], for which the “% activation” value is listed as 0%.
As to `OC(CN1CCC2(CC1)CC(O)c1cc(Cl)ccc1O2)c1ccc(Cl)cc1` (stereo not shown) [KKL-0934], the “% activation” value is 0%.
As for `O=C(CCNc1cccc(Cl)c1)c1ccc([N+](=O)[O-])cc1` [KKL-1449], the figure is 0%; as for `Cc1ccccc1-n1ncc(C(C)NC(=O)c2ccc3c(c2)no[n+]3[O-])c1C` (stereo not shown) [KKL-1140], 0%; as for `COc1cc(/C=C/C2=CCN(C)CC2)ccc1OCC(=O)Nc1cccc(Cl)c1` [KKL-0529], 3%.
As for `CCOc1cc2ccccc2cc1C(=O)NC` [KKL-1734], the “% activation” value is listed as 0%.
For `Cc1ccc(CN(CCCn2ccnc2)Cc2[nH]c3ccc(F)cc3c2C)s1` [KKL-1202] the value was 20%.
For `COc1ccc(-c2cncc(-c3cc(N4CCN(CCO)CC4)nc(-c4ccccc4)n3)c2)cc1` [KKL-1682] the value was 0%; for `Cc1sc2nc(C(C)C)n(C3CCN(C(=O)c4ccncc4)CC3)c(=O)c2c1C` [KKL-0464], 14%; for `Cn1nc(-c2cccnc2)cc1CN1CCN(C(=O)c2cc3ccc(Cl)cc3[nH]2)CC1` [KKL-1238], 3%.
As to `Cc1ccc(Nc2nnc(SCC(=O)Nc3cccnc3Cl)s2)cc1C` [KKL-0826], the “% activation” value came out at 0%.
As for `CSc1ccc(C(=O)C2CCCN(Cc3ccc(C#CCCO)cc3)C2)cc1` (stereo not shown) [KKL-1157], the figure is 2%.
As for `O=C(CNCCN1CCOCC1)Nc1sc2c(c1C(=O)Nc1ccccc1)CCC2` [KKL-1074], the figure is 2%; as for `CC(=O)c1ccc(NC(S)=Nc2ccc(Br)c(Cl)c2)cc1` [KKL-1333], 0%; as for `CCOc1ccc(Nc2nc(-c3ccccn3)cs2)cc1` [KKL-1101], 0%.
For `CC1=CCC(c2cnc(-c3ccccc3)c(C)c2)NC1c1ccccc1` (stereo not shown) [KKL-0448] the value was 0%; for `Cc1cccc(C2c3[nH]c4ccccc4c3CCN2Cc2ccc3cc(F)ccc3n2)n1` (stereo not shown) [KKL-0645], 0%; for `CCOC(=O)c1ccc(NC(=O)CSc2nnc(-c3ccc(OC)cc3)o2)cc1` [KKL-1405], 4%.
Regarding `COC(=O)CSc1nc(N)c2c3c(sc2n1)CCCC3` [KKL-0994], the “% activation” value turned out to be 9%.
For `O=C(CCCSc1ccccc1)NNC(=O)c1cccs1` [KKL-1709] the value was 3%; for `Cc1ccccc1NC(=O)c1ccccc1NC(=S)NC(=O)c1cccnc1` [KKL-1211], 9%; for `O=C(N[C@@H](Cc1ccccc1)C(=O)Nc1ccccc1N1CCOCC1)c1cccs1` [KKL-1871], 4%.
Consider `Cc1nn(-c2ccccc2)c2nc(O)c(CNCc3ccccc3OC(C)C)cc12` [KKL-1037], for which the “% activation” value is 0%.
Turning to `Cc1ccc(NC(=O)C(=O)NNC(=O)c2ccco2)cc1Cl` [KKL-1500], the “% activation” value is listed as 0%.
For `Cc1ccc2c(c1)c(-c1ccccc1)c(-c1ccccc1)n2CC(O)CN1CCN(CCO)CC1` (stereo not shown) [KKL-1406] the value was 4%; for `CC(C)(C)c1ccc(OCCN2C(=O)C(=O)c3cc(Br)ccc32)cc1` [KKL-0862], 0%.
As for `CCn1nnc(NC(=O)c2sc3ccccc3c2Cl)n1` [KKL-0870], the figure is 0%; as for `CC(C)(C)c1ccc(C(=O)Nc2cccc(NC(=O)c3cccs3)c2)cc1` [KKL-0867], 0%.
For the molecule `CSc1ccccc1C(=O)C1CCCN(C(=O)c2ccc3c(c2)no[n+]3[O-])C1` (stereo not shown) [KKL-0339], the “% activation” value is reported as 0%.
As for `CN(CC1Cc2ccccc2CN1C)C(=O)c1cc(COc2cncc(Cl)c2)on1` (stereo not shown) [KKL-1186], the figure is 0%; as for `Cc1ccc(C(NC(=O)C2(c3ccc(Cl)cc3)CCOCC2)c2cccnc2)cc1` (stereo not shown) [KKL-0692], 19%.
In the case of `Cc1ccc(Cl)cc1N=C1C=C(NS(=O)(=O)c2cccs2)c2ccccc2C1=O` [KKL-1115], the “% activation” value came to 0%.
As to `OC(CNCCc1ccc(C(F)(F)F)cc1)COc1cccc2ccccc12` (stereo not shown) [KKL-0794], the “% activation” value is recorded as 0%.
As for `O=C(Nc1nccs1)c1ccc(CSc2ccccc2)o1` [KKL-0586], the “% activation” value is 0%.
For `COc1cc2cc(-c3nc4ccccc4[nH]3)c(N)nc2cc1OC` [KKL-0395] the value was 22%.
As for `COc1cccc(C2(NC(=O)c3cnc(SC)nc3)CCCC2)c1` [KKL-0678], the figure is 4%; as for `COc1ccc2c(c1)NC1(COC3(CCN(Cc4ccccc4Cl)CC3)C1)c1cccn1-2` (stereo not shown) [KKL-0446], 3%.
As for `O=C(/C=C/c1ccco1)Nc1nc(-c2ccccn2)cs1` [KKL-0814], the figure is 0%.
As to `CCCn1nnc(NC(=O)COc2ccc(C3CCCCC3)cc2)n1` [KKL-1397], the “% activation” value was 0%.
With `Cc1cccc(-c2cccc(NC(=O)C3CCCN(Cc4ccc(C#CCO)s4)C3)c2)c1` (stereo not shown) [KKL-1130], the “% activation” value is 4%.
As for `C=Cn1cc(CN2CCCN(c3cccc(OC)c3)CC2)c(C)n1` [KKL-0548], the figure is 0%.
As for `CCCC(=O)OCCNc1cc(SCc2ccco2)c2nonc2c1[N+](=O)[O-]` [KKL-1142], the figure is 0%.
For `COc1ccc(CCNc2cc(C)nc3c(-c4ccc(Cl)cc4)c(C)nn23)cc1OC` [KKL-0901] the value was 0%.
Regarding `CC(=O)c1ccc2[nH]c3ccc(C(C)=O)cc3c2c1` [KKL-1408], the “% activation” value was 0%.

These data come from PMC12548414.
